The assay concerns the target T1, EML3 TQT86AAA, endogenous in homozygous Eml3^TQT86AAA mice (mouse (endogenous in placenta)) (UniProt Q8VC03).
T1 sequence: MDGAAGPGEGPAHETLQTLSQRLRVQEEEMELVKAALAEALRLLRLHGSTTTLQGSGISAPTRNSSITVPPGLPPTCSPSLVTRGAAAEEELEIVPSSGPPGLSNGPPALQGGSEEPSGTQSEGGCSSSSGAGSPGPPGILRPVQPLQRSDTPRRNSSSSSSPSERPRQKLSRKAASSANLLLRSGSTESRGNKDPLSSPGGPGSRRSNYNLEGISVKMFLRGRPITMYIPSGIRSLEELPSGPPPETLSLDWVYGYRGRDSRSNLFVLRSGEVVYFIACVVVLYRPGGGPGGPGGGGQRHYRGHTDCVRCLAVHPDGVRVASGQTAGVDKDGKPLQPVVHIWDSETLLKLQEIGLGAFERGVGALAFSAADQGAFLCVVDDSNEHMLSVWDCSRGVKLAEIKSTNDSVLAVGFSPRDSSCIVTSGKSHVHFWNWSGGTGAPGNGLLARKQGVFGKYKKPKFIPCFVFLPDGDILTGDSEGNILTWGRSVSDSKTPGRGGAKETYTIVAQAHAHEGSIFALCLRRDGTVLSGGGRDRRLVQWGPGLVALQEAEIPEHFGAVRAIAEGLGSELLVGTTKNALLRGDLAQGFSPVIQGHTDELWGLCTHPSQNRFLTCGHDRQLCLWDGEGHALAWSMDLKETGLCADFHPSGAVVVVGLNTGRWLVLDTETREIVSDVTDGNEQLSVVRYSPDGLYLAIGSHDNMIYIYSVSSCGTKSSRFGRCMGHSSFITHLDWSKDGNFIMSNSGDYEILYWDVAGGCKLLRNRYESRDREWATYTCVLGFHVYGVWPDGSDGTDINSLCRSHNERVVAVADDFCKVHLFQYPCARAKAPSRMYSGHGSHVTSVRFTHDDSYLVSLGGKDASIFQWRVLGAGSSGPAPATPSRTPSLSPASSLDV
As to the kind of experiment: affinity purification with mass spectrometry.

Protein sequences, listed by entry. Tags and fused reporters are not part of them.
UniProt P63168: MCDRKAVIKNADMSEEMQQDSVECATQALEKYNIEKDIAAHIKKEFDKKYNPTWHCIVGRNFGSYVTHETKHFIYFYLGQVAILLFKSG

These are yes or no findings as the source states them, for the method shown. In cells and extracts the contact can be indirect. These calls come from enrichment with a bait or labelling near it, and not all partners need be listed. No binding means not detected with the bait.

For “cytoplasmic dynein light chain DYNLL1, endogenous (from UniProt P63168 1-89)”, the binding result is recorded as “no binding”.

Source of the values: paper doi:10.1101/2025.04.06.647459.
